# According to the supplement of paper PMC4604168 (melanoma cell lines):
# The list shows a part of the results. Many values rest on one well or one pass, so single values are uncertain.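 Imaging used 1,536-well plates; nuclei positive for cleaved PARP by antibody were divided by total DNA-stained nuclei to yield the apoptosis fraction. Doses for screening kept most cells viable, and cell lines differ markedly in resting and induced cleaved-PARP levels.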
# Assays:
# Assay in all cases: cleaved PARP positive nuclei fraction relative to DMSO control; melanoma cells; higher = more apoptosis
# Conditions in all cases: library dose: low library concentration; 72 h
# MZ2-MEL = tested on: MZ2-MEL
# MeWo = tested on: MeWo
# RPMI7951 = tested on: RPMI7951
# RVH-421 = tested on: RVH-421
# SkMel28 = tested on: SkMel28
# SkMel30 = tested on: SkMel30
# SkMel5 = tested on: SkMel5
# UACC257 = tested on: UACC257
# UACC62 = tested on: UACC62
Structure (SMILES),cleaved PARP positive nuclei fraction (MZ2-MEL) [%],cleaved PARP positive nuclei fraction (MeWo) [%],cleaved PARP positive nuclei fraction (RPMI7951) [%],cleaved PARP positive nuclei fraction (RVH-421) [%],cleaved PARP positive nuclei fraction (SkMel28) [%],cleaved PARP positive nuclei fraction (SkMel30) [%],cleaved PARP positive nuclei fraction (SkMel5) [%],cleaved PARP positive nuclei fraction (UACC257) [%],cleaved PARP positive nuclei fraction (UACC62) [%]
"O=C(O)c1ccc(-c2c[nH]c3ncc(-c4ccccc4)cc23)cc1C1CCCC1 + COc1ccc(COc2ccc(Cc3cnc(N)nc3N)cc2OC)cc1 [GW2580] (first compound 0.16 µM, partner dose 1 µM)",82.9,73.3,44.3,53,174,161,60.1,51.8,75.1
"COc1ccc2c(c1)CCC1C2CCC2(C)C(NCCCCCCN3C(=O)C=CC3=O)CCC12 (stereo not drawn) + COc1cc2ncnc(Nc3ccc(Oc4ccccc4)cc3)c2cc1OC [SrcI1] (first compound 0.4 µM, partner dose 2 µM)",73.4,116,59.2,76.9,154,50,27.3,139,71
"CN(NC(=O)CC(=O)NN(C)C(=S)c1ccccc1)C(=S)c1ccccc1 + O=S(=O)(c1ccccc1)N(CC(F)(F)F)c1ccc(C(O)(C(F)(F)F)C(F)(F)F)cc1 [T0901317] (first compound 0.006 µM, partner dose 1.4 µM)",116,121,82.8,61.5,78.2,699,136,114,170
"CCN(CC)CCCCNc1ncc2cc(-c3cc(OC)cc(OC)c3)c(NC(=O)NC(C)(C)C)nc2n1 + COc1ccc(COc2ccc(Cc3cnc(N)nc3N)cc2OC)cc1 [GW2580] (first compound 0.1 µM, partner dose 1 µM)",103,146,78.9,67.3,40.6,44.1,26.4,116,116
"CCN(CC)CCCCNc1ncc2cc(-c3cc(OC)cc(OC)c3)c(NC(=O)NC(C)(C)C)nc2n1 + O=C(O)C(=O)Nc1sc2c(c1C(=O)O)CCNC2 [TCS401] (first compound 0.1 µM, partner dose 1.66667 µM)",36.9,47.7,34.2,73.8,105,40.9,190,74.7,49
"CCN(CC)CCCCNc1ncc2cc(-c3cc(OC)cc(OC)c3)c(NC(=O)NC(C)(C)C)nc2n1 + CCCCCCCCCCCC1=C(O)C(=O)C=C(O)C1=O [Embelin] (first compound 0.1 µM, partner dose 1.2 µM)",69.2,75.4,86,96.1,173,81.7,58.5,101,57.1
"COc1cc2c(Oc3ccc4[nH]c(C)cc4c3F)ncnc2cc1OCCCN1CCCC1 [cediranib] + O=C(O)C(=O)Nc1sc2c(c1C(=O)O)CCNC2 [TCS401] (first compound 0.4 µM, partner dose 1.66667 µM)",69,68.2,302,93.8,190,39.4,59,118,40.8
"Oc1nc(-c2ccc(C(F)(F)F)cc2)nc2c1CSCC2 + O=c1cc(-c2cccc3c2Sc2ccccc2S3)oc(N2CCOCC2)c1 [KU55933] (first compound 2 µM, partner dose 1 µM)",83.9,37.3,92.5,95.2,208,80.9,42.5,245,79.3
"COc1ccc(COc2ccc(Cc3cnc(N)nc3N)cc2OC)cc1 + Cc1cc([N+](=O)[O-])ccc1NS(=O)(=O)c1cc(Cl)ccc1Cl [FH535] (first compound 1 µM, partner dose 1 µM)",72.8,57.3,152,104,113,119,32.6,91.8,166
"CN(NC(=O)CC(=O)NN(C)C(=S)c1ccccc1)C(=S)c1ccccc1 + CC(C)CCN1c2nc(Nc3cc(F)c(O)c(F)c3)ncc2N(C)C(=O)C1C [BID1870] (first compound 0.006 µM, partner dose 0.2 µM)",146,294,135,52.5,124,52.3,65.1,172,144
"N#Cc1c(O)c2c(-c3ccc(-c4ccccc4O)cc3)csc2[nH]c1=O + Cn1cc(/C=C2\C(=O)Nc3cccnc32)c2ccccc21 [GW441756] (first compound 2 µM, partner dose 0.4 µM)",147,52.3,36.7,152,80.2,85.7,66.9,73.3,82.8
"O=C(Nc1ccccc1)c1cc([N+](=O)[O-])ccc1Cl + Oc1nc(-c2ccc(C(F)(F)F)cc2)nc2c1CSCC2 [XAV939] (first compound 2 µM, partner dose 2 µM)",102,126,123,93.8,103,245,161,67.1,41.9

# Nothing new here: an excerpt of the list.
Structure (SMILES),cleaved PARP positive nuclei fraction (MZ2-MEL) [%],cleaved PARP positive nuclei fraction (MeWo) [%],cleaved PARP positive nuclei fraction (RPMI7951) [%],cleaved PARP positive nuclei fraction (RVH-421) [%],cleaved PARP positive nuclei fraction (SkMel28) [%],cleaved PARP positive nuclei fraction (SkMel30) [%],cleaved PARP positive nuclei fraction (SkMel5) [%],cleaved PARP positive nuclei fraction (UACC257) [%],cleaved PARP positive nuclei fraction (UACC62) [%]
"CCN(CC)CCCCNc1ncc2cc(-c3cc(OC)cc(OC)c3)c(NC(=O)NC(C)(C)C)nc2n1 + O=C(O)C(=O)Nc1sc2c(c1C(=O)O)CCNC2 [TCS401] (first compound 0.1 µM, partner dose 1.66667 µM)",36.9,47.7,34.2,73.8,105,40.9,190,74.7,49
"CCN(CC)CCCCNc1ncc2cc(-c3cc(OC)cc(OC)c3)c(NC(=O)NC(C)(C)C)nc2n1 + CCCCCCCCCCCC1=C(O)C(=O)C=C(O)C1=O [Embelin] (first compound 0.1 µM, partner dose 1.2 µM)",69.2,75.4,86,96.1,173,81.7,58.5,101,57.1
